The results in this text go back to PMC5577505.

Protein sequences, listed by entry. Tags and fused reporters are not part of them.
UniProt P11940: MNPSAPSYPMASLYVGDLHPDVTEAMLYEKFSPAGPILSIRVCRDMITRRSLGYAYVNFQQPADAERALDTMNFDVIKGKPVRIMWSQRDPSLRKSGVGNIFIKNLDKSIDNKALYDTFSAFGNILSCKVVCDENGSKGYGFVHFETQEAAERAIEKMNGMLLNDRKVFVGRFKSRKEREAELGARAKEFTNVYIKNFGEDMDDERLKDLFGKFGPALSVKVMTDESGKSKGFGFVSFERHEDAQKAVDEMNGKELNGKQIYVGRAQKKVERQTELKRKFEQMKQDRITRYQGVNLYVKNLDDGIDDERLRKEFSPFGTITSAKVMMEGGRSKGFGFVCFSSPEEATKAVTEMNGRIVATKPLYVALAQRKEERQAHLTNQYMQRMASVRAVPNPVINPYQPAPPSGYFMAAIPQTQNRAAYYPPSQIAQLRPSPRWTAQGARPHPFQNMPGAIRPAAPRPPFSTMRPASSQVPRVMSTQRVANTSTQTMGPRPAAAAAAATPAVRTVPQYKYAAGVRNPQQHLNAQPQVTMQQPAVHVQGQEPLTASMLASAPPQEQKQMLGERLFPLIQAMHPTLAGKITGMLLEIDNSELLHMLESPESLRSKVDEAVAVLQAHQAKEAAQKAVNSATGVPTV
UniProt O00571: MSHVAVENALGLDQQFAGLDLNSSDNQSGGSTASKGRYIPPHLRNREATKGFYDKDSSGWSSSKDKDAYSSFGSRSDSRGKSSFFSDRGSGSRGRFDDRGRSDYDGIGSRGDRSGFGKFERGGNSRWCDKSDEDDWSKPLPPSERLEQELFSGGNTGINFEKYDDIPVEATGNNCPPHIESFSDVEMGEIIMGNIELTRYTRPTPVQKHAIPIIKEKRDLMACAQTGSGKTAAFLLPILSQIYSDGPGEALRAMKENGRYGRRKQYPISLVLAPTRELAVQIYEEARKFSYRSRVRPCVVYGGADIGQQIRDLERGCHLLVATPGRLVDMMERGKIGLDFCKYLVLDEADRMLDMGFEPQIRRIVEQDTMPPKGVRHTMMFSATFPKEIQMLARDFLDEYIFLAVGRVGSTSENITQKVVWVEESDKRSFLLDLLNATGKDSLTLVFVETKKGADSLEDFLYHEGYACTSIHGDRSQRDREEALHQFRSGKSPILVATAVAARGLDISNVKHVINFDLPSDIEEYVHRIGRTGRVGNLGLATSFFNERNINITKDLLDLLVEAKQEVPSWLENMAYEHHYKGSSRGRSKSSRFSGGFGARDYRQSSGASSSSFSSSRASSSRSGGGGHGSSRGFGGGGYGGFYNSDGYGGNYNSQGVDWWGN

Test [1] deals with poly(A)-binding protein 1 (human (endogenous in MRC5)) (UniProt P11940). Briefly: co-IP; actively growing cells with translation initiation or elongation inhibited; data not shown.
Test [2] shares this target. Nature of the test: co-IP; PABP1 precipitated with PABP1 antibody and Protein A-Sepharose from lysates (500 µg protein) of spreading cells, 4°C; resin-only control; immunoblotting. A general note: A western blot detects proteins with antibodies after separation by electrophoresis.
The target in another test is HA-tagged DDX3X (UniProt O00571). Briefly: co-IP; HA-DDX3X precipitated with anti-HA-Agarose from lysates (500 µg protein) of spreading cells, without RNAse1, 2 h at 4°C; immunoblotting.

Results are given in words; binding and its absence hold for the method and conditions named. In cells and extracts the contact can be indirect. Some binding calls cover weakened binding; strength is not graded here.

For the substance “DDX3X (endogenous) (from UniProt O00571 1-662)”, the binding entry in test [1] and in test [2] was “binds” in each case.
On to “poly(A)-binding protein 1 (from UniProt P11940 1-636)”, for which the binding entry with HA-tagged DDX3X is given as “binds”.
